Test results taken from the supplement of paper PMC7666118.
Some of the results follow.

The chains behind the UniProt entries cited, without tags or fusion partners. Where a name states a change or a piece, a line headed by the entry shows the natural chain unless it says otherwise.
UniProt Q5GLZ8: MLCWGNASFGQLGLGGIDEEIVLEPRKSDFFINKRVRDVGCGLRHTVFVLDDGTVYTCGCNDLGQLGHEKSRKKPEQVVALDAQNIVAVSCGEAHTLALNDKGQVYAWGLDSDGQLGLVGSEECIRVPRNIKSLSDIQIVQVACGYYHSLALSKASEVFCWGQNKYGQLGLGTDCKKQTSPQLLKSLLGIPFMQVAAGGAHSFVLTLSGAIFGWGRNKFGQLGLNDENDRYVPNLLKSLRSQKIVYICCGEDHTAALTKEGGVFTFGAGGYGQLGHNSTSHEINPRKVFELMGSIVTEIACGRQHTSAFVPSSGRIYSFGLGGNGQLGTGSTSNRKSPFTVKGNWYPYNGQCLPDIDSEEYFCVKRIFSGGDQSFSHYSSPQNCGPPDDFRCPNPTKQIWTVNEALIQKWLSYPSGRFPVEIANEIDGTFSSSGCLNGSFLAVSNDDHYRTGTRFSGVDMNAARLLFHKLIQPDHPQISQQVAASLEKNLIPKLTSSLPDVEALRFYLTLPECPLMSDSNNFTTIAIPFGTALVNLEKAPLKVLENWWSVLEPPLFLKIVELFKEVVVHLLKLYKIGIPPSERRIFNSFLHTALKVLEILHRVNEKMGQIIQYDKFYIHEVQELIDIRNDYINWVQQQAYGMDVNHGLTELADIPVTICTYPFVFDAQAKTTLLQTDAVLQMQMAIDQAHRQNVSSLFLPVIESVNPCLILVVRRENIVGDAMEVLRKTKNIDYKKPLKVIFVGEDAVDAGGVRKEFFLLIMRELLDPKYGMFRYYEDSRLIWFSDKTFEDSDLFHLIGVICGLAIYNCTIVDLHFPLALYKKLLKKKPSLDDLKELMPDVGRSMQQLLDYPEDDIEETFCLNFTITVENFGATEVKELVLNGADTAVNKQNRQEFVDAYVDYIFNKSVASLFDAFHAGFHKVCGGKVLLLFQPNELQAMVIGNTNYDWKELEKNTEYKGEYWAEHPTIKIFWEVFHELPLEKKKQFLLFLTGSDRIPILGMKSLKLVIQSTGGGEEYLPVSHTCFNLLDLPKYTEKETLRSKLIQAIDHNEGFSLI
UniProt Q9UHW5, whole entry: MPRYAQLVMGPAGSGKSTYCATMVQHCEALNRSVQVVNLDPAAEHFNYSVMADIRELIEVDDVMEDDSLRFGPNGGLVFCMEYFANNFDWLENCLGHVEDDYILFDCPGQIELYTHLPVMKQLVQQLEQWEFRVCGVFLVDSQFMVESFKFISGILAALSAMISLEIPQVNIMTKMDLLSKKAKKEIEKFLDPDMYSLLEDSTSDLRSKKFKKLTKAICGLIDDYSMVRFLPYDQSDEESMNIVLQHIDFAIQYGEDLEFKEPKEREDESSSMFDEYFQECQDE
UniProt Q9BQ67, whole entry: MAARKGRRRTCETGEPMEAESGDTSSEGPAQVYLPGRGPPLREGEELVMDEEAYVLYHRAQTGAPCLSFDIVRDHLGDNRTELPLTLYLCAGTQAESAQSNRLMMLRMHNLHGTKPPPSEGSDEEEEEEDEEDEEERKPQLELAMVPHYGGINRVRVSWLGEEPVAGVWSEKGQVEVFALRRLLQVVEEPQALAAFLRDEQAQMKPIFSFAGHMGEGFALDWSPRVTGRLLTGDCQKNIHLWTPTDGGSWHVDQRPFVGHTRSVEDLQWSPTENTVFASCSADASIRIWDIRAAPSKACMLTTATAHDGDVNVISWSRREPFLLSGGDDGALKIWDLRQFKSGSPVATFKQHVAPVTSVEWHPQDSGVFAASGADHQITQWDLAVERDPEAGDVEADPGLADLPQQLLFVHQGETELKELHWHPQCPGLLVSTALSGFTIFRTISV
UniProt Q86XA9: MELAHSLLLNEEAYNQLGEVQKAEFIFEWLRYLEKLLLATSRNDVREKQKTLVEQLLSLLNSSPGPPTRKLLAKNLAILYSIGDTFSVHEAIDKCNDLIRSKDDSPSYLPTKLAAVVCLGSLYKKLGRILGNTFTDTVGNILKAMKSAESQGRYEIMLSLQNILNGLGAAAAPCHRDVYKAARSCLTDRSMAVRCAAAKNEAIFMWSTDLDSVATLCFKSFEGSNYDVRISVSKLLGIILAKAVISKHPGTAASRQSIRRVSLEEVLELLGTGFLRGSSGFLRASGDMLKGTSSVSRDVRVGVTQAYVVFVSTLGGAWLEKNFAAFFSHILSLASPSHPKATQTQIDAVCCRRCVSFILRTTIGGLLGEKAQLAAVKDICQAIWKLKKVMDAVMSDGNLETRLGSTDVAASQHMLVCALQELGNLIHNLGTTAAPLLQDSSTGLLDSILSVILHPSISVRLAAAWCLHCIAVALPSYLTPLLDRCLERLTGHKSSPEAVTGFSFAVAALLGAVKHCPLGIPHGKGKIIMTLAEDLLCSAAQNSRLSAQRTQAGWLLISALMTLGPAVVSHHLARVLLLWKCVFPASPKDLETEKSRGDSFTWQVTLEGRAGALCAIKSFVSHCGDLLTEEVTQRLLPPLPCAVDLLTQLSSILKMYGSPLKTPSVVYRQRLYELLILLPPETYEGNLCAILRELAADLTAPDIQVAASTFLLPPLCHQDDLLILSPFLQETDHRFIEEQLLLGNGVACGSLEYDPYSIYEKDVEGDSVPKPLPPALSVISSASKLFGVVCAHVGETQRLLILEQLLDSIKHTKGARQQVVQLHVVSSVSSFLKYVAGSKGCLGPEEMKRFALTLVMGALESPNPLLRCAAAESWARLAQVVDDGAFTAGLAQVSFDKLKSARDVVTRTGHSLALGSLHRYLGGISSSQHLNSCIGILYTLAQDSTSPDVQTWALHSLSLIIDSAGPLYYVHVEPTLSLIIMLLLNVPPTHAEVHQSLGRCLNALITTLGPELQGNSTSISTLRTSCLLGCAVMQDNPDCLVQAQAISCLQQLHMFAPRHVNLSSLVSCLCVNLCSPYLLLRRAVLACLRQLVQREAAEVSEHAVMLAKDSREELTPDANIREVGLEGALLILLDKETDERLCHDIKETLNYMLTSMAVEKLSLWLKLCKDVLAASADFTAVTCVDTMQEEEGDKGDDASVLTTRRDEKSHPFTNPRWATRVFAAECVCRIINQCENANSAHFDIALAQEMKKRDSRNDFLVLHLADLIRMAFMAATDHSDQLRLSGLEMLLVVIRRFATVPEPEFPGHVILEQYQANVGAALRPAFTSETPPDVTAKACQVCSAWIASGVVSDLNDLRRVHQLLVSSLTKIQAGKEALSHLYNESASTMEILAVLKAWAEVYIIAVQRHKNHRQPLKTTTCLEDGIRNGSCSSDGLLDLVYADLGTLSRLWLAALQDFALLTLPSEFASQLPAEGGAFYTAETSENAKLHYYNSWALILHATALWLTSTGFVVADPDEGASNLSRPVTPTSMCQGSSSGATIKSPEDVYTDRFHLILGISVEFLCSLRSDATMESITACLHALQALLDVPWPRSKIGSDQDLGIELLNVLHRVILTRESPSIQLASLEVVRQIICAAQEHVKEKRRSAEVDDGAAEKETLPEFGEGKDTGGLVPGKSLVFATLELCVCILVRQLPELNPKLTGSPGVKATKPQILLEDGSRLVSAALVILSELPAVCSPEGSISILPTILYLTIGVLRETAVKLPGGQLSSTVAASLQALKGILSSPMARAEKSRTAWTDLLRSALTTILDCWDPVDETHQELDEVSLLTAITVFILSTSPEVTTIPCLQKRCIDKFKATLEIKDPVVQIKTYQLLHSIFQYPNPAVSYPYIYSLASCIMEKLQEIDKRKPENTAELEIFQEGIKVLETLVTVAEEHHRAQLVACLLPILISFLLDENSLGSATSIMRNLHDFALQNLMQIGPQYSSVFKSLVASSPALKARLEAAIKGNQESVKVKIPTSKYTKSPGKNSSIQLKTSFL
UniProt P60983, whole entry: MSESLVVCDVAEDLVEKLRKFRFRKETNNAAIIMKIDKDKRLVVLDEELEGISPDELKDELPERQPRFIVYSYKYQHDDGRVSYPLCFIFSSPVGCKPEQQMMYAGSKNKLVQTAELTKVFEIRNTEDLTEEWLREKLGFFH
UniProt Q13889: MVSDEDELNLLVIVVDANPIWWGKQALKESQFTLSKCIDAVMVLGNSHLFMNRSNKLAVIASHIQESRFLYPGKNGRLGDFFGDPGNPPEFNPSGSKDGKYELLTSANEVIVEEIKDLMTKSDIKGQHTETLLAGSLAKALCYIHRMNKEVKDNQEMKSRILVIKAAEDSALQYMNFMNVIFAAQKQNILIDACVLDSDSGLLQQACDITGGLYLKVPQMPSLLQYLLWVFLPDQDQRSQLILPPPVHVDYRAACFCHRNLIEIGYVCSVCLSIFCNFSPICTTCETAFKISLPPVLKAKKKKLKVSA
UniProt P52655, whole entry: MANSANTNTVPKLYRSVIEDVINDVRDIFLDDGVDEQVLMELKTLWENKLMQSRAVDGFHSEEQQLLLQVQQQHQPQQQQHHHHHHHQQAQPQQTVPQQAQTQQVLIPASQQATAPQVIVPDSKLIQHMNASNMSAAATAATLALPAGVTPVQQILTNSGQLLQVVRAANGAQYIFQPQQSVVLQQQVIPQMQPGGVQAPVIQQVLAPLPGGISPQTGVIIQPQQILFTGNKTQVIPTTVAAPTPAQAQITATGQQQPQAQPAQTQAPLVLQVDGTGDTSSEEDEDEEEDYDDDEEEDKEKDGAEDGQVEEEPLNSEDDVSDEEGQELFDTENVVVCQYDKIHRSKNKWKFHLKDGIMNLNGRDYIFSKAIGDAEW
UniProt Q86Z02: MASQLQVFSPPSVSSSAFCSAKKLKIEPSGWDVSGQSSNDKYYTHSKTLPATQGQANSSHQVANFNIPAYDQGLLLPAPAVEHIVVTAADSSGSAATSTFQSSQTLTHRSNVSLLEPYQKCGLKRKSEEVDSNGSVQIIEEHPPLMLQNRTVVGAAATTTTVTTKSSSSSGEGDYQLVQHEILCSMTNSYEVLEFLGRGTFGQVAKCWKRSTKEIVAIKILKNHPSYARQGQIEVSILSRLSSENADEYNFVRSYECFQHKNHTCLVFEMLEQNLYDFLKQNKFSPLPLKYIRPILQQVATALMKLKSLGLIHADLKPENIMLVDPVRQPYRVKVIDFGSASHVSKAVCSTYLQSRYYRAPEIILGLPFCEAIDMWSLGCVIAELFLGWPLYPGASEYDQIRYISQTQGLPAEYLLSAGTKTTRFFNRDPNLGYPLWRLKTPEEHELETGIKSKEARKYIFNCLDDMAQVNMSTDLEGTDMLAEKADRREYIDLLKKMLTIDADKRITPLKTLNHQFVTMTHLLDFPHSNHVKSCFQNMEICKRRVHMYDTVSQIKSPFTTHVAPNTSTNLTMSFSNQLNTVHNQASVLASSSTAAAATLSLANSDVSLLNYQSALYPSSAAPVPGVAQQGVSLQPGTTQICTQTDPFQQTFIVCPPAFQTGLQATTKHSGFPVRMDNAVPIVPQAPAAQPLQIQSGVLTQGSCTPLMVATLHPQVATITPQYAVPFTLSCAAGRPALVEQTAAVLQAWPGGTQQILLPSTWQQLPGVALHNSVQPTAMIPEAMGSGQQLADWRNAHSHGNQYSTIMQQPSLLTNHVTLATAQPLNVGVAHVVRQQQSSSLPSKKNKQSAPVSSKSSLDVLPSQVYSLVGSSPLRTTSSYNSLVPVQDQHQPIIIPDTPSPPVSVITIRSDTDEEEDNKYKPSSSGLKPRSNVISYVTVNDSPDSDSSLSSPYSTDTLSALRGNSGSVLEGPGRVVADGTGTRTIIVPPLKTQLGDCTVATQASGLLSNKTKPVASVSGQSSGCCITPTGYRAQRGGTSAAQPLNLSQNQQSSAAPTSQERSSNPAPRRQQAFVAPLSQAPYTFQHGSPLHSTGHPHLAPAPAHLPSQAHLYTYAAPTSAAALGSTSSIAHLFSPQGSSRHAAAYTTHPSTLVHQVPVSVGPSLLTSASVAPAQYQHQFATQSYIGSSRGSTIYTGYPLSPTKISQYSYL
UniProt P10321, whole entry, looked up: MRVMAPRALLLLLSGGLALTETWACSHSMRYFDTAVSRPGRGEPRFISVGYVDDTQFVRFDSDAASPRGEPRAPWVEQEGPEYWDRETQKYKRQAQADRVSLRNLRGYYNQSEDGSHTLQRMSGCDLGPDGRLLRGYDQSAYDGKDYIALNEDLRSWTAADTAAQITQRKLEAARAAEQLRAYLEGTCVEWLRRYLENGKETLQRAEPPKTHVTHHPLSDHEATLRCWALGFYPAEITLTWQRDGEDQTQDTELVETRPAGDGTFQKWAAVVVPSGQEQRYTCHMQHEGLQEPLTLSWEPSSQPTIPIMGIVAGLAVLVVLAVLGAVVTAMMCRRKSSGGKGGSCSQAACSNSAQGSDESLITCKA
UniProt P29992, whole entry: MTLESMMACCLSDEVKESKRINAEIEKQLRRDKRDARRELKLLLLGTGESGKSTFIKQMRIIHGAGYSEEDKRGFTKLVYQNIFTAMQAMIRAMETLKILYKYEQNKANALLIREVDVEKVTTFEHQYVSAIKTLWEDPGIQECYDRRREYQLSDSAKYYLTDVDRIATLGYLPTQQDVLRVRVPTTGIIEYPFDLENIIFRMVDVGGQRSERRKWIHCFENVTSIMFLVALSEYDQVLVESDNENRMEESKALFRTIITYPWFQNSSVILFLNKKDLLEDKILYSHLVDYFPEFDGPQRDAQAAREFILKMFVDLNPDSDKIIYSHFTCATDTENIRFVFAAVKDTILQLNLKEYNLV

compound: COc1ccc(Cn2ccc3ccc(C(=O)NO)cc32)cc1; assay: dose-dependent thermal stabilisation call (2D-TPP, DLPTP, 10% FDR) (binary (1 = stabilised)); higher = stabilised by the compound; details: system: HL-60 intact cells; concentration range 0.04-10 µM

| Target | dose-dependent thermal stabilisation call |
| --- | --- |
| GPBP1L1 (UniProt Q9HC44) | inactive: 0 |
| GRLF1 (UniProt Q9NRY4) | inactive: 0 |
| HERC4 (UniProt Q5GLZ8) | inactive: 0 |
| GPN3 (UniProt Q9UHW5) | inactive: 0 |
| GLOD4 (UniProt Q9HC38) | inactive: 0 |
| GRSF1 (UniProt Q12849) | inactive: 0 |
| GTF2E1 (UniProt P29083) | inactive: 0 |
| GTF2E2 (UniProt P29084) | inactive: 0 |
| GRWD1 (UniProt Q9BQ67) | inactive: 0 |
| HEATR5A (UniProt Q86XA9) | inactive: 0 |
| GMFB (UniProt P60983) | inactive: 0 |
| GTF2H3 (UniProt Q13889) | inactive: 0 |
| HINT3 (UniProt Q9NQE9) | inactive: 0 |
| GGNBP2 (UniProt Q9H3C7) | inactive: 0 |
| HINT1 (UniProt P49773) | inactive: 0 |
| GTF2A1 (UniProt P52655) | inactive: 0 |
| GEMIN7 (UniProt Q9H840) | inactive: 0 |
| GPAM (UniProt Q9HCL2) | inactive: 0 |
| GDI2 (UniProt P50395) | inactive: 0 |

| Target | dose-dependent thermal stabilisation call |
| --- | --- |
| GNB4 (UniProt Q9HAV0) | inactive: 0 |
| HADHB (UniProt P55084) | active: 1 |
| GPD1L (UniProt Q8N335) | inactive: 0 |
| GTPBP5 (UniProt Q9H4K7) | inactive: 0 |
| HDHD1A (UniProt Q08623) | inactive: 0 |
| HIPK1 (UniProt Q86Z02) | inactive: 0 |
| GLCCI1 (UniProt Q86VQ1) | inactive: 0 |
| HLA-C (UniProt P10321) | inactive: 0 |
| GTF2F1 (UniProt P35269) | inactive: 0 |
| GGCT (UniProt O75223) | inactive: 0 |
| GCSH (UniProt P23434) | inactive: 0 |
| GORASP2 (UniProt Q9H8Y8) | inactive: 0 |
| HECTD3 (UniProt Q5T447) | inactive: 0 |
| HEATR6 (UniProt Q6AI08) | inactive: 0 |
| GTPBP10 (UniProt A4D1E9) | inactive: 0 |
| GCLC (UniProt P48506) | inactive: 0 |
| H2AFY (UniProt O75367) | active: 1 |
| GNA11 (UniProt P29992) | inactive: 0 |

Part of the list above, as tab-separated lines.
Target	dose-dependent thermal stabilisation call
GORASP2 (UniProt Q9H8Y8)	inactive: 0
HECTD3 (UniProt Q5T447)	inactive: 0
